Results are given in words; binding and its absence hold for the method and conditions named. Some results given as binding are weak or reduced against the parent protein; the word gives no strength. For part of these data: Sequences can lack the tags named with a protein. Blank lines part the entries; values can stand above or below the binder they belong to.
Tests used:
hB7H3-His (human) = target: T1, hB7H3-His (human) (UniProt Q5ZPR3); test: ELISA, purified VHH
T1 sequence (looked up): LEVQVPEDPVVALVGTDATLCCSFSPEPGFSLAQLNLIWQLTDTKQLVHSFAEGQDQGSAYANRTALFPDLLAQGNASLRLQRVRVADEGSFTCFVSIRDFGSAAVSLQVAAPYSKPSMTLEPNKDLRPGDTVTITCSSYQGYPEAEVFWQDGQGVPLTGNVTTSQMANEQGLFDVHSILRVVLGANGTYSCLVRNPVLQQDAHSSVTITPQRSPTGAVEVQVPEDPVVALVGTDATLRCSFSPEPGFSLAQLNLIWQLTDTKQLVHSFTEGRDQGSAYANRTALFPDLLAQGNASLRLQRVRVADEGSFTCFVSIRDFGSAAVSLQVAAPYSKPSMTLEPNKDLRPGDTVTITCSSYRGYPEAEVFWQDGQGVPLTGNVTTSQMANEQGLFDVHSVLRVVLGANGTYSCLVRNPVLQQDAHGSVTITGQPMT

B7H3-hFc (human) [1] = target: T2, B7H3-hFc (human) (UniProt Q5ZPR3); test: ELISA (summary of Example 2)
T2 sequence: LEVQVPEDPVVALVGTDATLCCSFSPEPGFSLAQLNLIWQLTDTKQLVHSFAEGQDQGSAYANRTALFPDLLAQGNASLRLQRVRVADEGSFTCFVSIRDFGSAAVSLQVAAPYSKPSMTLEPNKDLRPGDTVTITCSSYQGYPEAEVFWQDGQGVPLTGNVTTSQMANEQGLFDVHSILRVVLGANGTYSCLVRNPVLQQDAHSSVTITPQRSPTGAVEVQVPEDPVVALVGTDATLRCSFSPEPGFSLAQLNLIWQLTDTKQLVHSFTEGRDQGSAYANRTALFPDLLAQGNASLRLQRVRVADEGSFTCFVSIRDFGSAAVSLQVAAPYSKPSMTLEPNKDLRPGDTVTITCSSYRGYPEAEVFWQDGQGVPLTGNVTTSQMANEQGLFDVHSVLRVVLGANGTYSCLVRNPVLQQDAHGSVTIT

[2] = target: T3, B7H3 (CD276) on human B7H3-positive tumor cell lines (human) (UniProt Q5ZPR3); test: flow cytometry (summary of Example 2)
T3 sequence (looked up): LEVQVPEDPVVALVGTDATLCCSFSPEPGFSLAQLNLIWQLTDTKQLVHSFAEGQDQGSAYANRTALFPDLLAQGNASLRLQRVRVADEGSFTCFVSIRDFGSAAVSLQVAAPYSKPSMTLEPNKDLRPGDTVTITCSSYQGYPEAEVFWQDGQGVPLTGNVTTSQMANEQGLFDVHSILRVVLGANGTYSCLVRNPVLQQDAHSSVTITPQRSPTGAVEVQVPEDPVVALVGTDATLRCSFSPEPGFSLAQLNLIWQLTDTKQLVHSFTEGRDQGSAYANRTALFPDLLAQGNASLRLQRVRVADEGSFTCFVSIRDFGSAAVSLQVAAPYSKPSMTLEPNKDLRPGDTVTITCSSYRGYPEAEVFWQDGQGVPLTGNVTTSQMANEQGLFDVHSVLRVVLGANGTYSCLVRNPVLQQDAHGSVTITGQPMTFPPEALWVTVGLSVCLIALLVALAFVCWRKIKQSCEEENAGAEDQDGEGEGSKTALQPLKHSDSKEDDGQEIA

[3] = target: T3, B7H3 (CD276) on human B7H3-positive tumor cell lines (human); test: flow cytometry on IMR32, A431 and NBEB cells, 10 ug/mL
B7H3-hFc (human) [4] = target: T2, B7H3-hFc (human); test: monoclonal phage ELISA on B7H3-hFc with IAB-hFc as tag control
B7H3-hFc (human) [5] = target: T2, B7H3-hFc (human); test: ELISA on coated B7H3-hFc, detection with HRP anti-FLAG M2
[6] = target: T3, B7H3 (CD276) on human B7H3-positive tumor cell lines (human); test: flow cytometry, 10 ug/mL antibody, APC anti-FLAG; IMR32, A431 and (untitled panel) NBEB cells, IMR32-B7-H3 KO as control
mouse B7H3-His (mouse) = target: T4, mouse B7H3-His (mouse) (UniProt Q8VE98); test: ELISA, purified VHH
T4 sequence (looked up): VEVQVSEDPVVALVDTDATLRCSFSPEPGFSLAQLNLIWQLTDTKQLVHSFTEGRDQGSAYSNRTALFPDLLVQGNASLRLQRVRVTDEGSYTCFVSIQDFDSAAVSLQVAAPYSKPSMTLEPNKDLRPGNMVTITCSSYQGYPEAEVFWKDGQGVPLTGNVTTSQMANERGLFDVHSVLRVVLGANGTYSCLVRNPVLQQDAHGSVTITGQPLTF

[7] = target: T3, B7H3 (CD276) on human B7H3-positive tumor cell lines (human); test: flow cytometry, 10 ug/mL antibody, APC anti-FLAG; IMR32, A431 and NBEB cells, IMR32-B7-H3 KO as control

B2: RFB1 (protein, not shown: small tags and cut ends)
VH: QEQLKESGGRLVTPGTPLTLTCTVSGFSPNNYGVSWVRQPPGKGLEWIGMSSTAGATYYANWAKGRFTISKTSTTVDLEITSPTTEDTATYFCAKGTPSLSYGNIWGPGTLVTVSSGGGGSGGGGSGGGGSAQGPTQTPGGGGSGTEVVVK
binding (B7H3-hFc (human) [1]): binds
binding [2]: binds
binding [3]: binds
binding (B7H3-hFc (human) [4]): binds
binding (B7H3-hFc (human) [5]): binds
binding [6]: binds

B4: RWG4 (VHH)
VHH: QVQLVQSGGGLVQPGGSLRLSCAASGFTFSVYWFYWVRQAPRQGLEWVSTIASNGSTYYSDSVKGRFTISRDNAKNTVYLQMNSLKPEDTAVYYCVSDPDYYSDYERAYKFWAQGTQVTVSS
binding (hB7H3-His (human)): binds

B5: RWB12 (VHH)
VHH: QVQLVESGGGSVQVGGSLRLSCAASGFTYNSYSVGWFRQAPGKEREGVAAINSGGSSTYYAASVKGRFTISRDNAKNTVYLQMNSLKPEDTAMYYCAARSPSPLTFQTRTLREDSYNYWGQGTQVTVSS
binding (hB7H3-His (human)): binds

B6: RWC4 (VHH)
VHH: EVQLVESGGGSVQAGGSLRLSCVASEDSTSAMCMGWFRQAPGKEREGVACINPTGEVTWYGDSVKGRFTISRDTVKKIVYLQMNSLKPEDTAMYYCAARVTYGGDWSTDTDYEYWGQGTQVTVSS
binding (hB7H3-His (human)): binds

B7: RFA1 (protein, not shown: small tags and cut ends)
VH: QSLEESGGGLVTPGGTLTLTCTVSGFSLSSYGMSWVRQAPGKGLEWIGSMANNGDPYYASWAKGRFTISKTSTTVDLKITSPTTEDTATYFCVRAPWGSHSMWGPGTLVTVSSGGGGSGGGGSGGGGSDPVLTQTAGGGTNVEIK
binding (B7H3-hFc (human) [1]): binds
binding [2]: binds
binding [3]: binds
binding (B7H3-hFc (human) [4]): binds
binding (B7H3-hFc (human) [5]): binds
binding [7]: binds

More lines, now with the values ahead:

binding (hB7H3-His (human)): binds
B1: RWH1 (VHH)
VHH: AVQLVESGGGSVQAGGSLRLSCAASGMNLDNYVRGWLRQAPGSKCEFVSIIRRDGTTDYGDSVKGRFTISRDNAKNTVYLQMNSLKPDDTAVYYCAAIVVPRAAEYACDGLPYRGQGTQVTVSS

binding (hB7H3-His (human)): binds
binding (mouse B7H3-His (mouse)): binds
B3: RWG8 (VHH)
VHH: DVQLVESGGGLVQPGGSLRLSCAASGFTFSRYWMGWFRQAPGKGVEWVSTINSGGGSTYYADSVKGRFTISRDNAKNTLYLQLNNLKTEDTAMYYCAKEQWRTGSRGQGTQVTVSS

Reference: patent US20220380471A1
